Among the data in PubChem BioAssay AID1487 (National Center for Advancing Translational Sciences (NCATS), 2009) are AC50 values, retold here.

The other results are listed elsewhere or left out. These are further read-outs of the screen, such as a control signal, another cell line or another target. No call is given for them. The list favours compounds with an active or inconclusive main result. Words in brackets tell the shape of the fitted curve; partial curves, single points and poor fits give uncertain potencies.

A short description of the test: qHTS Assay for Modulators of Lamin A Splicing. The settings on record: HeLa LMNA splicing GFP/RFP minigene ratio, 48 h. The essentials: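 S3 HeLa cells stably expressing lamin A-EGFP splicing minigene plus DsRed2, 600 cells/well, 48 h compound exposure at 37C. Laser-scanning cytometry; analysed as GFP (500-530 nm)/RFP (575-640 nm) total intensity ratio; 0.5% DMSO vehicle.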
Background: In qHTS, concentration-response curves come from the screen itself.

The mark [1] stands for this setting: measured here: GFP splicing reporter channel.
Where [2] appears, read: measured here: RFP viability control channel.

In general, AC50 refers to the midpoint of the concentration-response curve, whichever way the signal moves. As for `CC1CCC(N2CC(=O)N(Cc3ccc4c(c3)OCO4)C(c3ccc(F)cc3)C2=O)CC1` (stereo not given), the AC50 under setting [1] is 11.2 µM [rising, single point] and the AC50 under setting [2] was 14.1 µM [rising, single point].

Take `O=C(Nc1cccc([N+](=O)[O-])c1)c1ccc2c(c1)OCCO2`: the AC50 is 15.8 µM [rising, partial curve] under setting [1] and 31.6 µM [rising, single point] under setting [2].

With `Cc1ccccc1CNC(=O)Cn1nc(C)c2nn(-c3ccc(Cl)cc3)c(C)c2c1=O`, the AC50 under setting [2] is 0.02 µM [falling, full curve, poor fit].

For the compound `CCOC(=O)c1sc2ccccc2c1S(=O)(=O)Nc1cc(OC)ccc1OC`, the AC50 under setting [2] was 11.2 µM [rising, partial curve, poor fit].

As to `O=S(=O)(CCSc1nc2ccccc2o1)c1nc2ccccc2s1`, the AC50 by setting is: under setting [1], 6.31 µM [falling, partial curve, poor fit]; under setting [2], 12.6 µM [falling, partial curve].

On to `CC(C)=NOc1cc(NC(=O)CCl)cc([N+](=O)[O-])c1`, for which the AC50 reads like this: under setting [1], 35.5 µM [rising, single point]; under setting [2], 35.5 µM [rising, single point].

On to `CC1(C)C(C=C(Cl)Cl)C1C(=O)N1CCN(c2ccccc2)CC1` (stereo not given), for which the AC50 under setting [1] was 3.16 µM [rising, single point] and the AC50 under setting [2] was 12.6 µM [rising, single point].

Regarding `COc1ccc(S(=O)(=O)N2CCN(Cc3ccccc3)CC2)cc1`, the AC50 under setting [2] was 12.6 µM [rising, single point].

In the case of `CCN(CC)S(=O)(=O)c1ccc(N(C)Cc2cccnc2)nc1`, the AC50 under setting [2] was 12.6 µM [rising, partial curve].

With `Cc1cc(C)cc(C(=O)N2CC(=O)Nc3ccccc32)c1`, the AC50 under setting [2] was 2.51 µM [rising, full curve].

As for `Cc1cc(C)c(C(=O)Nc2ccccc2)c(CC(C)(C)C(=O)O)c1`, the AC50 is, setting by setting: under setting [1], 25.1 µM [rising, partial curve]; under setting [2], 12.6 µM [rising, partial curve].

On to `Cc1c(C(=O)OCC(=O)c2c(N)n(CC(C)C)c(=O)n(C)c2=O)oc2ccccc12`, for which the AC50 under setting [2] was 11.2 µM [rising, partial curve].

In the case of `O=C(c1cc2ccccc2oc1=O)N(c1ccccc1)C1C=CS(=O)(=O)C1` (stereo not given), under setting [2], the AC50 is 5.01 µM [rising, partial curve].

On to `Cc1nc(N2CCN(C(=O)c3ccco3)CC2)c2c3c(sc2n1)CCCC3`, for which the AC50 under setting [2] is 22.4 µM [rising, single point].

For `COCCOC(=O)c1[nH]c2c(c1C)C(=O)CC(c1ccco1)C2` (stereo not given), the AC50 under setting [2] was 5.01 µM [rising, full curve].

As for `CCCCNC(=S)N/N=C/c1sccc1C`, the AC50 was 31.6 µM [rising, single point] under setting [1] and 1.26 µM [falling, full curve, poor fit] under setting [2].

`CCc1ccc(CNC(=O)C2CCCN(S(=O)(=O)c3ccc4c(ccn4C)c3)C2)cc1` (stereo not given): the AC50 under setting [1] is 0.0794 µM [falling, full curve, poor fit].

In the case of `COc1ccc(CSCC(=O)Nc2ccc(S(=O)(=O)N3CCCCCC3)cc2)cc1`, the AC50 under setting [2] was 35.5 µM [rising, single point].

With `CCc1cccc(CC)c1NC(=O)C1SC(=Nc2ccccc2C)C(c2nc3ccccc3s2)=C1N` (stereo not given), the AC50 under setting [2] was 12.6 µM [rising, partial curve].

Take `Cc1cc(=O)oc2c(C(=O)/C=C\c3cccs3)c(O)ccc12`: under setting [2], the AC50 was 1.78 µM [rising, partial curve, poor fit].

As for `Cc1nc2ccccn2c1C(=O)N/N=C/c1cc(C)n(-c2ccc(Br)cc2)c1C`, the AC50 runs as follows: under setting [1], 35.5 µM [rising, single point]; under setting [2], 35.5 µM [rising, single point].

On to `Nc1c2ccccc2nc2ccccc12`, for which the AC50 is, setting by setting: under setting [1], 0.398 µM [falling, full curve, poor fit]; under setting [2], 12.6 µM [falling, partial curve].

As to `Cc1cccc(-n2ncc3c(NC(C)C)ncnc32)c1`, under setting [2], the AC50 was 35.5 µM [rising, single point].

Regarding `c1ccc(C2=Nn3c(nnc3-c3ccncc3)SC2)cc1`, the AC50 under setting [1] is 35.5 µM [rising, single point].

Take `CCCCc1ccc(NC(=S)NN2CCOCC2)cc1`: under setting [2], the AC50 was 14.1 µM [rising, single point].

For `Cc1cc(Cl)ccc1NC(=S)N1CCN(Cc2ccc3c(c2)OCO3)CC1`, the AC50 is 1.41 µM [rising, partial curve, poor fit] under setting [1] and 2.51 µM [rising, partial curve] under setting [2].

As for `O=C(Cc1cccc2ccccc12)N/N=C/c1ccc(Sc2cccc3cccnc23)o1`, under setting [2], the AC50 was 35.5 µM [rising, single point].

Consider `COc1ccc(-n2cnc(N)c2C(=O)c2cccc([N+](=O)[O-])c2)cc1`, for which the AC50 under setting [2] was 31.6 µM [rising, single point].

Consider `CC(=Nc1cccc(C)c1)c1sc2ccccc2c1O`, for which the AC50 by setting is: under setting [1], 4.47 µM [falling, partial curve]; under setting [2], 5.62 µM [falling, single point].

For the compound `COc1ccc(CNC(=O)CN2C(=O)CC(c3ccccc3)=Nc3ccccc32)cc1`, the AC50 under setting [2] is 10 µM [falling, partial curve].

Consider `CCOc1ccc(S(=O)(=O)N2CCN(c3ccc(OC)cc3)CC2)c2cccnc12`, for which the AC50 runs as follows: under setting [1], 11.2 µM [rising, partial curve]; under setting [2], 15.8 µM [rising, partial curve].

Regarding `CCN(CC)S(=O)(=O)c1ccc(N2CCOCC2)c(NCC(=O)Nc2ccc(F)cc2)c1`, the AC50 under setting [2] was 0.501 µM [rising, full curve].

In the case of `COc1cccc(-n2cn[nH]c2=S)c1`, the AC50 under setting [1] is 1.26 µM [rising, full curve].

As to `O=C(N/N=C/c1ccc(N2CCOCC2)cc1)C1COc2ccccc2O1` (stereo not given), the AC50 under setting [1] was 7.08 µM [falling, partial curve, poor fit].

Consider `CC(CCc1ccccc1)NC(=O)C1CCN(S(=O)(=O)N2CCOCC2)CC1` (stereo not given), for which, under setting [1], the AC50 was 11.2 µM [rising, single point].

With `Cc1cccc(NC(=O)c2sc3nc(N)c(C#N)cc3c2N)c1`, the AC50 under setting [2] is 2.82 µM [rising, single point].

In the case of `Cc1sc(NC(=O)c2ccco2)c(CN2CCN(Cc3ccccc3)CC2)c1C`, the AC50 reads like this: under setting [1], 11.2 µM [rising, single point]; under setting [2], 14.1 µM [rising, single point].

For the compound `O=C(CC1C(=O)NCCN1Cc1ccc(-c2ccccc2)cc1)NCCc1ccccn1` (stereo not given), the AC50 under setting [1] was 0.112 µM [falling, full curve, poor fit] and the AC50 under setting [2] is 0.0891 µM [falling, full curve, poor fit].

For the compound `Cc1ccc(CNS(=O)(=O)c2cc3c(cc2Cl)NC(=O)CO3)o1`, the AC50 under setting [1] is 0.631 µM [rising, single point].

For `O=C(CN1C(=O)NC2(CCCCCCC2)C1=O)N1CCc2ccccc2C1`, the AC50 under setting [1] was 0.1 µM [rising, full curve, poor fit].

Regarding `NS(=O)(=O)c1ccc(NC(=O)CSc2ccc3ccccc3n2)cc1`, under setting [2], the AC50 was 1.26 µM [falling, full curve].

On to `COc1ccc(O)c(C(=O)c2cc(C(=O)NCCc3ccccc3)c(=O)n(CCc3ccccc3)c2)c1`, for which the AC50 under setting [2] was 11.2 µM [rising, partial curve].

`COc1ccc(/C=N/NC(=O)CN(C2=NS(=O)(=O)c3ccccc32)c2ccccc2)cc1`: the AC50 under setting [2] was 12.6 µM [rising, partial curve].

As for `Cc1csc2nc(-c3ccc(NS(=O)(=O)c4cc(F)ccc4F)cc3)cn12`, the AC50 under setting [1] is 0.398 µM [rising, partial curve, poor fit].

In the case of `OC1(c2cccc(C(F)(F)F)c2)CCN(Cc2nnnn2Cc2ccccc2)CC1`, the AC50 under setting [1] is 0.0891 µM [rising, full curve, poor fit].

For the compound `COc1ccccc1C(=O)Nc1ccc(C(=O)OCc2cc(=O)n3nc(C)sc3n2)cc1`, the AC50 under setting [2] is 0.794 µM [rising, full curve, poor fit].

For the compound `COc1ccc(CNc2ncnc3ccc(-c4cccnc4)cc23)c(OC)c1`, the AC50 runs as follows: under setting [1], 11.2 µM [falling, partial curve]; under setting [2], 11.2 µM [falling, partial curve].

On to `Cc1ccc(-n2c(O)c(C=NC3CCS(=O)(=O)C3)c3ccccc3c2=O)cc1C` (stereo not given), for which the AC50 under setting [2] was 8.91 µM [rising, partial curve, poor fit].

Regarding `O=C(c1cc2ccccc2c(=O)o1)N1CCCc2ccccc21`, the AC50 under setting [2] is 5.62 µM [rising, single point].

For `COC(=O)c1sc2ncn(CC(=O)NCCc3ccc(OC)c(OC)c3)c(=O)c2c1C`, under setting [2], the AC50 is 35.5 µM [falling, single point].

Turning to `CCN(CC)C(=O)CSc1nc2ccc(NC(=O)CSc3nccn3C)cc2s1`, under setting [2], the AC50 is 14.1 µM [rising, single point].

On to `CCOC(=O)c1[nH]c2ccccc2c1NC(=S)Nc1cccc(C)c1`, for which the AC50 runs as follows: under setting [1], 7.08 µM [rising, full curve, poor fit]; under setting [2], 0.0794 µM [rising, full curve].

`Cn1c(=O)c2c(nc(Br)n2Cc2ccccc2Cl)n(C)c1=O`: the AC50 is, setting by setting: under setting [1], 15.8 µM [rising, single point]; under setting [2], 31.6 µM [rising, single point].

For `CN(C)C(=O)c1ccc(-c2nc(NCc3ccccc3)c3ccccc3n2)cc1`, the AC50 reads like this: under setting [1], 35.5 µM [rising, single point]; under setting [2], 35.5 µM [rising, single point].

For `Brc1ccc(C2=Nc3ccccc3C(c3ccncc3)=NN2)cc1`, the AC50 is, setting by setting: under setting [1], 0.562 µM [falling, partial curve, poor fit]; under setting [2], 2.51 µM [falling, single point].

Take `CCn1nc(CC(=O)Nc2ccc(-n3cnnn3)c(OC)c2)c2ccccc2c1=O`: the AC50 under setting [2] was 3.16 µM [rising, partial curve, poor fit].
